Here are results for 3 substances from paper doi:10.1101/2024.08.06.606759.

Sequences of proteins named here, by UniProt entry; tags and fusion partners are left off.
UniProt P11586: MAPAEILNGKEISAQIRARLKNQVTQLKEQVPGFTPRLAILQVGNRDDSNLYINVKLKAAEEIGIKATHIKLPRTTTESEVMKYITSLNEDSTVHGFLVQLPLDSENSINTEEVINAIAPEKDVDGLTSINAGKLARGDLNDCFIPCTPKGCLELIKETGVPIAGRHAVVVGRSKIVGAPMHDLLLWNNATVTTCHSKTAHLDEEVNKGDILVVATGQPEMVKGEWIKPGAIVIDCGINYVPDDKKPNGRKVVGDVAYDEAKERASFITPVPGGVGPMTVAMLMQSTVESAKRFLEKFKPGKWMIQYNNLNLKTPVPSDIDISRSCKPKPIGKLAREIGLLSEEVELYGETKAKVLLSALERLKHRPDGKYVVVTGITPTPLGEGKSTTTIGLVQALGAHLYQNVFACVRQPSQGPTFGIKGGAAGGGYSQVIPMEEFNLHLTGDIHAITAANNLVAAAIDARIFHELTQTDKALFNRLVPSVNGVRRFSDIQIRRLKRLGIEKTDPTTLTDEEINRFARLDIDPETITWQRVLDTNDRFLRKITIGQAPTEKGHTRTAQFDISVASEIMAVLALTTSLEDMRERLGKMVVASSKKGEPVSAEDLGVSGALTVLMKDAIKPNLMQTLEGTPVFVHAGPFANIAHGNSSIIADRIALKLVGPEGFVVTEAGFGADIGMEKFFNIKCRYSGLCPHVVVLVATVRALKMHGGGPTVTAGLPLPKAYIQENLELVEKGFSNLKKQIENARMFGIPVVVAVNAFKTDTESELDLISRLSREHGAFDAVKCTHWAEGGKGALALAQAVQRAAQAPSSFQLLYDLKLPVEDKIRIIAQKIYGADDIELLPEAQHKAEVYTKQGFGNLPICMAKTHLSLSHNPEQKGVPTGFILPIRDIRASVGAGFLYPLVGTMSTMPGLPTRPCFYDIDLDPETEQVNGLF

These are yes or no findings as the source states them, for the method shown. In cells and extracts the contact can be indirect. Some entries that bind do so weakly or less than the wild type. For part of these data: Where a sequence is shown, tags or fusion partners need not be part of it.

Test [1] has as its target T1, RIPK4 (endogenous) (UniProt P57078).
T1 sequence: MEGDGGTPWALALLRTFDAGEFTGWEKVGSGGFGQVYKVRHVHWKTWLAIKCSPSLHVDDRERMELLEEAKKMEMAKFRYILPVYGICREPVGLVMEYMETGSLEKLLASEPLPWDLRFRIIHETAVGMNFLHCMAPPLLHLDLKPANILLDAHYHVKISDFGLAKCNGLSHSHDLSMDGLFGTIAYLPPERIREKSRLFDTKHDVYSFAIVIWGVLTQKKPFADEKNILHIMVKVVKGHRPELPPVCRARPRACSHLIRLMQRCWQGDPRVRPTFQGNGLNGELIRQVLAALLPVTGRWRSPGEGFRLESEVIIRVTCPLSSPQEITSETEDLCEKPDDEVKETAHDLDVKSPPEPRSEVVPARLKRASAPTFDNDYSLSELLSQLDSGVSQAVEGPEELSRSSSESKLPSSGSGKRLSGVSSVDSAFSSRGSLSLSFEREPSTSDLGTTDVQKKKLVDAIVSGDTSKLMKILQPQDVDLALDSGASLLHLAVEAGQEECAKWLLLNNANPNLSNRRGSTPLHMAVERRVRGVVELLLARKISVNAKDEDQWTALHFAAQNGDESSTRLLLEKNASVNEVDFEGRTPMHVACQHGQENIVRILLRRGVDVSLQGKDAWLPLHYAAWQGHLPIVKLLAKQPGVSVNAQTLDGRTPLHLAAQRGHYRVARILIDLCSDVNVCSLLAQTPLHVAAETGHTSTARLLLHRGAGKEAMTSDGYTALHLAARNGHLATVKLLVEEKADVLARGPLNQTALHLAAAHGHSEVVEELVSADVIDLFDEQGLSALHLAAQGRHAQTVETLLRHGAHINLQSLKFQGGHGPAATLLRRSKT
Briefly: co-IP.

The target of test [2] is T2, RIPK4-WT-FLAG (UniProt P57078).
T2 sequence: T1 sequence
Briefly: co-IP.

The target of test [3] is T3, GST-RIPK4 (UniProt P57078).
T3 sequence: T1 sequence
Briefly: pull-down.

Take “MTHFD1 (endogenous, cells of the co-ip not stated) (from UniProt P11586 1-935) (enzyme)”: the binding result in test [1] is reported as “binds”.
As to “MTHFD1-HA (from UniProt P11586 1-935) (enzyme)”, in test [2], the binding result is given as “binds”.
On to “His-MTHFD1 (from UniProt P11586 1-935) (enzyme)”, for which the binding entry in test [3] is given as “binds”.
